No constants are given. Whether binding was seen depends on the method and setting. In cells and extracts the contact can be indirect. Some entries that bind do so weakly or less than the wild type. Tags and fused reporters may be left off the sequences shown.

By UniProt entry, the sequences of proteins in these tests, tags left out.
UniProt P42694: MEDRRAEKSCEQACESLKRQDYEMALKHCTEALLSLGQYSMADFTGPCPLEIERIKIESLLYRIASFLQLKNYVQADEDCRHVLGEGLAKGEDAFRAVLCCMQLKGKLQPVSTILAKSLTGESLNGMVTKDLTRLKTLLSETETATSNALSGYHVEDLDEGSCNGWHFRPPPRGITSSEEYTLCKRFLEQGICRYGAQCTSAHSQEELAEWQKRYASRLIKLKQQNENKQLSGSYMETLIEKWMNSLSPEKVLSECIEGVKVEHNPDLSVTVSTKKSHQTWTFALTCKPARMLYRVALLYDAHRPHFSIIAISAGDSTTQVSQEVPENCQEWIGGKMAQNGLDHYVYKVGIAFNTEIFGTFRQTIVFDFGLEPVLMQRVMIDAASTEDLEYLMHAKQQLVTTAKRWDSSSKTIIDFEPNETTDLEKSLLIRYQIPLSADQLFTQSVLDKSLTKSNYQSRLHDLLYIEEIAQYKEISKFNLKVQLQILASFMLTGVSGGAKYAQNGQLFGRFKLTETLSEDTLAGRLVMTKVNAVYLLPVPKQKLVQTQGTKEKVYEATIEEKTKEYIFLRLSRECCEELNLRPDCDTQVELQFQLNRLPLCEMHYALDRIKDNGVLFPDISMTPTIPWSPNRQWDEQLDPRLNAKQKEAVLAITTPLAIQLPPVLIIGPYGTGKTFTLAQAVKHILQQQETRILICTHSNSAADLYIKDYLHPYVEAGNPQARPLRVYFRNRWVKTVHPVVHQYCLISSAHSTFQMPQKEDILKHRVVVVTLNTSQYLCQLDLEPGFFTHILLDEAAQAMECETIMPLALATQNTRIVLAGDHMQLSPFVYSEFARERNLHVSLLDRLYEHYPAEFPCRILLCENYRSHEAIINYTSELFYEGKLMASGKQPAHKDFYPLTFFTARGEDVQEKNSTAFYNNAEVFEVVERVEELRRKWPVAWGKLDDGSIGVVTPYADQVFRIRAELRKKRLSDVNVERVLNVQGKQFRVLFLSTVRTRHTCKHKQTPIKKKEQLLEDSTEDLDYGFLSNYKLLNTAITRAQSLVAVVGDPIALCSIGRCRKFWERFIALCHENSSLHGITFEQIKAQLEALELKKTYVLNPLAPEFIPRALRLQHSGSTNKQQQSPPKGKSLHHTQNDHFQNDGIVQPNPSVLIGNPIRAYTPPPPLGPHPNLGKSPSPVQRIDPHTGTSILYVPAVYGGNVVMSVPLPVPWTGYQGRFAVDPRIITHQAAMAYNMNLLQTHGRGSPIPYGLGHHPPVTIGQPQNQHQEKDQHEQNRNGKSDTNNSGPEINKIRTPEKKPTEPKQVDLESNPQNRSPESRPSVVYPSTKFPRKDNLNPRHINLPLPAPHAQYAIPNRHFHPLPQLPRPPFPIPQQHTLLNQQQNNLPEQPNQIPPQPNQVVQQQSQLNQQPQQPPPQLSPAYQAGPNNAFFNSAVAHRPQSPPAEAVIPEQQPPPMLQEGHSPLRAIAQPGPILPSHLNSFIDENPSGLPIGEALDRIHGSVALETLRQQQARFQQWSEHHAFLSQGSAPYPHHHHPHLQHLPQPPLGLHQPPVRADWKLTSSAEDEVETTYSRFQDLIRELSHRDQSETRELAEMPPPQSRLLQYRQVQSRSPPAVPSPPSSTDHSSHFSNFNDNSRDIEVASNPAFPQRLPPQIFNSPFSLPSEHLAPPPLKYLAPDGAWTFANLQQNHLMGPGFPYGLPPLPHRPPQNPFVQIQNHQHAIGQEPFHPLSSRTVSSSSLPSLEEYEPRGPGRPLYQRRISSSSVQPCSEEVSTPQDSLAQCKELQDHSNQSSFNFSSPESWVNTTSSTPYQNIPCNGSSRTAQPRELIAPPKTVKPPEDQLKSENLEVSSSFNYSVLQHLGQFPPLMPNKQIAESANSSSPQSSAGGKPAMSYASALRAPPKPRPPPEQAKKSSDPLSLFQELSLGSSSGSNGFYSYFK

In assay [1] the target is HA-tagged KIAA0054 (pCMV-HA-KIAA0054, Full length) (UniProt P42694). Description: co-immunoprecipitation from HeLa lysate with anti-FLAG or anti-HA, immunoblot (FIG. 7C). (In general: Immunoblotting shows a protein as a band on a membrane.)
For assay [2] the target is unchanged. Description: co-immunoprecipitation from HeLa lysate, immunoblot.

B1: FLAG-tagged ZNFN3A1 (pFLAG-CMV-ZNFN3A1, Full) (protein, not shown: small tags and cut ends)
chain: MEPLKVEKFATANRGNGLRAVTPLRPGELLFRSDPLAYTVCKGSRGVVCDRCLLGKEKLMRCSQCRVAKYCSAKCQKKAWPDHKRECKCLKSCKPRYPPDSVRLLGRVVFKLMDGAPSESEKLYSFYDLESNINKLTEDKKEGLRQLVMTFQHFMREEIQDASQLPPAFDLFEAFAKVICNSFTICNAEMQEVGVGLYPSISLLNHSCDPNCSIVFNGPHLLLRAVRDIEVGEELTICYLDMLMTSEERRKQLRDQYCFECDCFRCQTQDKDADMLTGDEQVWKEVQESLKKIEELKAHWKWEQVLAMCQAIISSNSERLPDINIYQLKVLDCAMDACINLGLLEEALFYGTRTMEPYRIFFPGSHPVRGVQVMKVGKLQLHQGMFPQAMKNLRLAFDIMRVTHGREHSLIEDLILLLEECDANIRAS
Consider B1, for which the binding result in assay [1] and in assay [2] was “binds” each time.

For the origin of these results see patent US20040235018A1.
